No constants are given. Whether binding was seen depends on the method and setting. For some of these results: In cells and extracts the contact can be indirect. Some results given as binding are weak or reduced against the parent protein; the word gives no strength. For some of these results: Sequences can lack the tags named with a protein.
Assays:
[1] = molecular target: T1, GST-MIF-WT (human) (UniProt P14174); assay: pull-down; GST-MIF on GSH beads (500 ng) with 75 ng PCNA or 5 U PARP1 recombinant protein or GST protein, 0.2% Triton X-100, 50 mM Tris-HCl pH 7.5, 100 mM NaCl, 15 mM EGTA, 1 mM DTT, overnight 4 °C, immunoblot; both purified
T1 sequence: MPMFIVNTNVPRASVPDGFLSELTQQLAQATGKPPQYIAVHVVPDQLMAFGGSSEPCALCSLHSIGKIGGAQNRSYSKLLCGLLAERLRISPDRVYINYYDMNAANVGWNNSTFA

Protein sequences, listed by entry. Tags and fused reporters are not part of them.
UniProt P09874: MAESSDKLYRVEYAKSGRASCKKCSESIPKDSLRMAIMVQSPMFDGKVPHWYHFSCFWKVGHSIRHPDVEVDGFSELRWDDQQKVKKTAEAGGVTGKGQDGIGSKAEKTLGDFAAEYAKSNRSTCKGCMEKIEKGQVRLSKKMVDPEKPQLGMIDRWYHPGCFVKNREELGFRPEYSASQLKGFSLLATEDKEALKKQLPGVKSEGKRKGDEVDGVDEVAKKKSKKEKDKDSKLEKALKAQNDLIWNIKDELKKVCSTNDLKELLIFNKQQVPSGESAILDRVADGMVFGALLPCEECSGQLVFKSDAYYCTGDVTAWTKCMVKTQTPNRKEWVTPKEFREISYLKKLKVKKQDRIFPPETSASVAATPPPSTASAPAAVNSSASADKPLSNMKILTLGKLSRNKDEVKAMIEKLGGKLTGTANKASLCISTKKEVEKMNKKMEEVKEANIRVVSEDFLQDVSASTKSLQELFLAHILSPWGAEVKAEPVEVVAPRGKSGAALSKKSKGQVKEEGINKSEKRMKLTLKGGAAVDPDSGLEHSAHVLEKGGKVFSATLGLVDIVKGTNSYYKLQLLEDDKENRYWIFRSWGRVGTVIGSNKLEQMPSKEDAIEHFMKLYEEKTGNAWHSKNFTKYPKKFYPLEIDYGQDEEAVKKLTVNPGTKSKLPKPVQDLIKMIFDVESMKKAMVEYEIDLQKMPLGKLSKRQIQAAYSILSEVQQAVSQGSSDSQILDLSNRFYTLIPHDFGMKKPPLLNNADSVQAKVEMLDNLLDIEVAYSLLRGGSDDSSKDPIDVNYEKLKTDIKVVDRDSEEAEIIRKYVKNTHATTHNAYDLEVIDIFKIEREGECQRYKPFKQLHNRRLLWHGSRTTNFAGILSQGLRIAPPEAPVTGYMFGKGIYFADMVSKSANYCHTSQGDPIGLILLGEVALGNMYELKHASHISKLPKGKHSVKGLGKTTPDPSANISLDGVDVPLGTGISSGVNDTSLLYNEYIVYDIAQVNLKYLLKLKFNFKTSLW
UniProt P13010: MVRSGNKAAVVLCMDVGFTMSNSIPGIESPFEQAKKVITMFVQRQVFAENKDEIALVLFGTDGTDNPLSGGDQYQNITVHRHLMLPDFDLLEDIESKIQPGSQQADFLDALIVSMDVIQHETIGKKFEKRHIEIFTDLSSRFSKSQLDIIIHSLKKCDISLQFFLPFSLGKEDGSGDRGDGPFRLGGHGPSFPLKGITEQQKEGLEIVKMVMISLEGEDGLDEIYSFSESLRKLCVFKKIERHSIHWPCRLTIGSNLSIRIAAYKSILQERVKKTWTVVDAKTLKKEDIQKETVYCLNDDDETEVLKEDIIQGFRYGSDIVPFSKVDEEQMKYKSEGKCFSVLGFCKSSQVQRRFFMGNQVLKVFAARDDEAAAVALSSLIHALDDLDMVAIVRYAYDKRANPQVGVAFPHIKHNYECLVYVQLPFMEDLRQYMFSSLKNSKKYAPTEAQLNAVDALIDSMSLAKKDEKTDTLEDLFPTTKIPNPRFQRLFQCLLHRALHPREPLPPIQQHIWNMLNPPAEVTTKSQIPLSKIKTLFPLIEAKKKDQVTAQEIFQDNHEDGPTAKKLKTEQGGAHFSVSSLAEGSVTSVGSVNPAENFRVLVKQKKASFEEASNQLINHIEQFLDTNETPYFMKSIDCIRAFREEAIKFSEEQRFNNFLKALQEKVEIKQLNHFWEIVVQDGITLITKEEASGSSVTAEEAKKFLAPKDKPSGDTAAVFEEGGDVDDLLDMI

[2] = molecular target: T2, macrophage migration inhibitory factor (MIF), endogenous (human (endogenous in MDA-MB-231 and HeLa)) (UniProt P14174); assay: co-IP; V5-tagged full-length PARP1 and truncates with MIF; cells and antibodies not stated
T2 sequence: T1 sequence

[3] = molecular target: T2, macrophage migration inhibitory factor (MIF), endogenous (human (endogenous in MDA-MB-231 and HeLa)); assay: co-IP; endogenous proteins, MDA-MB-231 lysate in NETN buffer (150 mM NaCl, 1 mM EDTA, 10 mM Tris-HCl pH 8.0, 0.5% IGEPAL), antibodies to MIF or PCNA with protein A/G magnetic beads overnight at 4 °C, immunoblot; also with or without Olaparib (5 uM, 2 h) after double thymidine synchronisation (more MIF-PCNA with Olaparib)

Row | binding [3] | Substance | also measured
1 | – | PARP1 recombinant protein (from UniProt P09874 1-1014) (enzyme) | binding [1]: binds
2 | – | V5-tagged full-length (FL) PARP1 (from UniProt P09874 1-1014) (enzyme) | binding [2]: binds
3 | binds | poly(ADP-ribose) polymerase 1 (PARP1), endogenous (from UniProt P09874 1-1014) | –
4 | binds | XRCC5, endogenous (from UniProt P13010 1-732) | –
